Results from publication PMC10835844.
These are yes or no findings as the source states them, for the method shown. Binding seen in cells or lysates may run through a third protein. Some binding calls cover weakened binding; strength is not graded here. For some of these results: Sequences can lack the tags named with a protein. Values belong to the molecule of their own block, whether it stands above or below them.

Sequences of proteins named here, by UniProt entry; tags and fusion partners are left off. A change or cut given only in a name is not applied to a line headed by its entry.
UniProt Q14258: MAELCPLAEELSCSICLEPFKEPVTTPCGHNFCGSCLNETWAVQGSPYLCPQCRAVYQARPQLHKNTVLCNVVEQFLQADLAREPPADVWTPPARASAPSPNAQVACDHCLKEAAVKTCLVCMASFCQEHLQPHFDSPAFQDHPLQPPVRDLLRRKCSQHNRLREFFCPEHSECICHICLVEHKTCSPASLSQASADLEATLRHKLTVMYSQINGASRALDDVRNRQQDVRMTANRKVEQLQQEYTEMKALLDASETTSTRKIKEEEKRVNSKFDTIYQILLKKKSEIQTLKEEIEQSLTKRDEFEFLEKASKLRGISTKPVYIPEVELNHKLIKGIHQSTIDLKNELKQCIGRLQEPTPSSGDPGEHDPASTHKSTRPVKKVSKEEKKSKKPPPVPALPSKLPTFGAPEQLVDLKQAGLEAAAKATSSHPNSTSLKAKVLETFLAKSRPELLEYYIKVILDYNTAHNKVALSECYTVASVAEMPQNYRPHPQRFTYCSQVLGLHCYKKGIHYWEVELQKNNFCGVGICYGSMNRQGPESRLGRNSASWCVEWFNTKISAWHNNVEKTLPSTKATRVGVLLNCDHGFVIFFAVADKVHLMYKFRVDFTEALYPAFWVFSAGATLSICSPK

Assays:
[1] = biological target: T1, HA-NONO full length (UniProt Q15233); assay: co-IP; lysates of HEK293 cells transfected with HA-NONO and Flag-TRIM25 constructs; protein A/G magnetic beads, IP lysis buffer, overnight at 4 °C, immunoblotting; which tag was precipitated is not told
T1 sequence: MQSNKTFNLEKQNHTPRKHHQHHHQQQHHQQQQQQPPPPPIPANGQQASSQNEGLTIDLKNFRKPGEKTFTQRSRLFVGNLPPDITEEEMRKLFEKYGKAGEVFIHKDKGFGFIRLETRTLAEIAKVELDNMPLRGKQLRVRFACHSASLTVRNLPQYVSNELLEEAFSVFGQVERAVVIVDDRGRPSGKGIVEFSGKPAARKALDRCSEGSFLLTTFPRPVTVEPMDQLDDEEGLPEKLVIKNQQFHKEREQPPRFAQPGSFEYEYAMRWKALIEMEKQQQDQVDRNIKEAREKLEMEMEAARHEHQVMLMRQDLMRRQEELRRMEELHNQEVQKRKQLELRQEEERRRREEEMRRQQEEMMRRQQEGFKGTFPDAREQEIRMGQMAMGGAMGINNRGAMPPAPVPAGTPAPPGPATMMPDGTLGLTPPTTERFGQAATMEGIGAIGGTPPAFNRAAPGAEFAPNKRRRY

[2] = biological target: T2, NONO (Non-POU domain containing octamer binding), endogenous (human (endogenous in LN229 and U251)) (UniProt Q15233); assay: co-IP; endogenous proteins; anti-TRIM25 or anti-NONO antibody or IgG on protein A/G magnetic beads, LN229 and U251 lysates (IP lysis buffer, overnight at 4 °C), immunoblotting
T2 sequence: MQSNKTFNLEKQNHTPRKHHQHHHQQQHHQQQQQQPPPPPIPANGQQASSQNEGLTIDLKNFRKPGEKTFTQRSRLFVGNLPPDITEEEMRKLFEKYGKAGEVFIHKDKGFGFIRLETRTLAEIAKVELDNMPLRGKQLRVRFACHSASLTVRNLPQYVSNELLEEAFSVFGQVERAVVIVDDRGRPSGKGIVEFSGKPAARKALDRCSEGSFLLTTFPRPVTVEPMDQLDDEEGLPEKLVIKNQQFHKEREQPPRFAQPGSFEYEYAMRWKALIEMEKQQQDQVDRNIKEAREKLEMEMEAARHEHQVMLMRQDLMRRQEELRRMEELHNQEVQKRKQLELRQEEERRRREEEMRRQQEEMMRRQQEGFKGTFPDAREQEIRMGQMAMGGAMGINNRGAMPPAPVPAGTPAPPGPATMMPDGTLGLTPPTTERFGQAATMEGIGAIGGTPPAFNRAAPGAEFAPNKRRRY

[3] = biological target: Tripartite motif 25 (TRIM25), endogenous (human (endogenous in LN229 and U251)) (UniProt Q14258); assay: as above
[4] = biological target: Flag-TRIM25 full length (UniProt Q14258); assay: co-IP; lysates of HEK293 cells transfected with HA-NONO and Flag-TRIM25 constructs; protein A/G magnetic beads, IP lysis buffer, overnight at 4 °C, immunoblotting; which tag was precipitated is not told

binding [1]: binds
Molecule: Flag-TRIM25 ∆P-SPRY (deletion of amino acids 410–630) (from UniProt Q14258 1-409) (domain or fragment)

binding [2]: binds
Molecule: Tripartite motif 25 (TRIM25), endogenous (from UniProt Q14258 1-630)

binding [3]: binds
B1: NONO (Non-POU domain containing octamer binding), endogenous (protein, UniProt Q15233 1-471)
chain: MQSNKTFNLEKQNHTPRKHHQHHHQQQHHQQQQQQPPPPPIPANGQQASSQNEGLTIDLKNFRKPGEKTFTQRSRLFVGNLPPDITEEEMRKLFEKYGKAGEVFIHKDKGFGFIRLETRTLAEIAKVELDNMPLRGKQLRVRFACHSASLTVRNLPQYVSNELLEEAFSVFGQVERAVVIVDDRGRPSGKGIVEFSGKPAARKALDRCSEGSFLLTTFPRPVTVEPMDQLDDEEGLPEKLVIKNQQFHKEREQPPRFAQPGSFEYEYAMRWKALIEMEKQQQDQVDRNIKEAREKLEMEMEAARHEHQVMLMRQDLMRRQEELRRMEELHNQEVQKRKQLELRQEEERRRREEEMRRQQEEMMRRQQEGFKGTFPDAREQEIRMGQMAMGGAMGINNRGAMPPAPVPAGTPAPPGPATMMPDGTLGLTPPTTERFGQAATMEGIGAIGGTPPAFNRAAPGAEFAPNKRRRY

binding [4]: binds
B2: HA-NONO ∆RRM2 (deletion of amino acids 148–229) (protein, UniProt Q15233)
chain: MQSNKTFNLEKQNHTPRKHHQHHHQQQHHQQQQQQPPPPPIPANGQQASSQNEGLTIDLKNFRKPGEKTFTQRSRLFVGNLPPDITEEEMRKLFEKYGKAGEVFIHKDKGFGFIRLETRTLAEIAKVELDNMPLRGKQLRVRFACHSLDDEEGLPEKLVIKNQQFHKEREQPPRFAQPGSFEYEYAMRWKALIEMEKQQQDQVDRNIKEAREKLEMEMEAARHEHQVMLMRQDLMRRQEELRRMEELHNQEVQKRKQLELRQEEERRRREEEMRRQQEEMMRRQQEGFKGTFPDAREQEIRMGQMAMGGAMGINNRGAMPPAPVPAGTPAPPGPATMMPDGTLGLTPPTTERFGQAATMEGIGAIGGTPPAFNRAAPGAEFAPNKRRRY
